Several values for one entry are separate records, joined by “and”; a condition that tells them apart may be missing. Identical values can stand only once. Hit rate of the full screen: of about 410,000 compounds, about 18,000 (4.4%) were called active. The shares of active, inactive and inconclusive entries below differ from those in the screen. No stated cut-off is given here; in the data, active means activity change below about -60%; inconclusive means no clear call, values can overlap the other calls; inactive means above about -39%.
Test: qHTS Assay for inhibitors of the human cytomegalovirus (HCMV)
Conditions: HFF cells, HCMV-luciferase reporter, 72 h; at 57.5 µM; stronger effect = lower value
Summary of the method: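 Steps: HFFs plated, 16 h 37C; compounds added; HCMV-luciferase added to MOI 1 PFU/cell; 72 h 37C; OneGlo reagent, 5 min room temperature; luminescence read, normalized to controls.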
On the % scale 0 is the no-effect control and ±100 the full control effect.

SMILES | activity change, negative = inhibition
COc1ccc(-c2cc(C(=O)Nc3cc(S(N)(=O)=O)ccc3C)c3ccccc3n2)cc1OC | inconclusive: -50.5%
Cc1ccc2c(c1)C(=O)N1[C@H]3c4cc(C)ccc4OC[C@@H]3[C@H](c3ccccc3)[C@]1(C)C(=O)N2 | inconclusive: -54.7%
CCN(CC)c1cc2c(cc1F)c(=O)c(S(=O)(=O)c1ccccc1)cn2C | inconclusive: -46.6%
CCOc1ccc(NC(=O)CN2CCSc3ccc(S(=O)(=O)N4CCCC4)cc32)cc1 | inconclusive: -46%
O=C(Nc1ccc(Cl)cc1)OCc1cn(-c2ccc(Cl)cc2)nn1 | inactive: -0.418%
COc1cccc(C(C)(O)c2nc(-c3ccc(N(C)C)cc3)cs2)c1 (stereo not given) | active: -73.7%
CCCCc1ccc(NC(=O)c2ccc(NS(C)(=O)=O)cc2)cc1 | inactive: 33.3%
CN(C)c1ccc(C(=O)c2ccc(N(C)C)cc2)cc1 | inactive: 135%
CN(C(=O)CN1C(=O)NC2(CCCc3ccccc32)C1=O)C1CCCCC1 (stereo not given) | inconclusive: -50.2%
c1ccc2ncc(-n3cnnn3)cc2c1 | inactive: 59.5%
COc1cccc(N=Nc2c(N)[nH]n3c(=O)c4c(nc23)CCCC4)c1 | inconclusive: -43.7%
Cc1cccc(NC(=S)Nn2cnnc2)c1C | inconclusive: -59.5%
CC(C)CN(CC(C)C)CC(O)COc1ccccc1Br (stereo not given) | active: -75.5%
Cc1cc(N2CCN(c3ccccc3)CC2)n2c(n1)nc1ccccc12 | inconclusive: -47.1%
COc1ccc(C(CC(=O)N2CCCCC2)c2c(OC)cc(OC)c3c(-c4ccccc4)cc(=O)oc23)cc1 (stereo not given) | inactive: 18.6%
O=C(Nc1cccc(-c2nc3ccccc3[nH]2)c1)c1cccc(NC(=O)c2ccco2)c1 | active: -102%
CCOC(=O)N1CCC(NC(=O)c2ccc3c(c2)ncn3C2CCCC2)CC1 | active: -68.1%
Cc1ccc(N=Nc2c(N)[nH]n3c(=O)cc(-c4ccccc4)nc23)cc1 | active: -80.9%
CN(Cc1ccco1)C(=O)C1CCC(=O)N(CCc2cccc(F)c2)C1 (stereo not given) | inconclusive: -40%
COc1ccc(CCNC(=O)C(=O)NCCC2CCCCN2S(=O)(=O)c2ccccc2)cc1 (stereo not given) | inconclusive: -47.1%
O=C1N/C(=N\N=C\c2ccccn2)SC1Cc1cccc(SC(F)F)c1 (stereo not given) | active: -98.7%
O=C(C=Cc1ccc2c(c1)OCO2)C=Cc1ccc2c(c1)OCO2 | inconclusive: -48.2%
CCOc1ccc(C(CC(=O)O)NC(=O)c2cccs2)cc1OC (stereo not given) | inconclusive: -42.5%
COc1ccccc1C(=O)N/C(=C\c1cn(S(=O)(=O)N(C)C)c2ccccc12)C(=O)NCCCN1CCOCC1 | inconclusive: -46.6%
Cc1c(O)ccc(C(=O)CN2CCN(c3ccc(F)cc3)CC2)c1O | inconclusive: -52.3%
COc1ccc2c(C(=O)c3ccc(C)cc3)n(CCC(N)=O)[n+]([O-])c2c1 | inconclusive: -43.8%
CCn1cc(/C=N\NC(=O)c2ccc3c(c2)c(C)c(C)n3Cc2ccccc2)c(C)n1 | inconclusive: -45.1%
CC1(NC(=O)c2cc(S(=O)(=O)N3CCCCC3)ccc2Cl)CCS(=O)(=O)C1 (stereo not given) | inactive: -11.8%

SMILES | activity change, negative = inhibition
CCN(c1ccccc1)S(=O)(=O)c1ccc(Cl)c(NC(=O)CN2CCCCCC2)c1 | inconclusive: -59.6%
CCOC(=O)c1c(NC(=O)c2cc(-c3ccc(Br)cc3)on2)sc(C)c1C | inactive: -3.55%
CC(Oc1ccccc1F)C(=O)N1CCC(c2nc3ccccc3o2)CC1 (stereo not given) | inconclusive: -42.4%
COc1ccccc1/C=C/C=N/n1c(C2CCCCC2)n[nH]c1=S | inconclusive: -58.8%
COC(=O)COc1c(Cl)cc(C(c2c(C)[nH][nH]c2=O)c2c(C)[nH][nH]c2=O)cc1OC | inconclusive: -53%
COc1ccccc1NC(=O)C1=C(C)Nc2nc(SCc3ccccc3)nn2C1c1cccs1 (stereo not given) | inconclusive: -47%
N#Cc1cccc(NC(=O)c2cc(C3CCCCN3C(=O)c3ccccc3)on2)c1 (stereo not given) | inconclusive: -42.6%
O=C(NCCc1ccc(Cl)cc1)c1ccc2c(c1)N(Cc1ccccc1)C(=O)CS2 | inconclusive: -45.7%
COc1ccc(OCc2nnc(NC(=O)Nc3ccccc3F)s2)cc1 | inconclusive: 0%
CCCCCCN1C[C@@H](n2cc(COC(=O)c3ccccc3)nn2)[C@H](O)C[C@@H]1c1ccc(C)cc1 | active: -88.5%
COC(=O)c1ccc(SC2CCCCC2)c([N+](=O)[O-])c1 | inconclusive: -53.3%
CCOC(=O)/C(O)=C(\C#N)c1nc2ccccc2[nH]1 | active: -64%
CCc1ccc(CNC(=O)c2cnc3sc(N4CCCCCC4)nn3c2=O)cc1 | inactive: -0.323%
CCn1c(C)c(C(C)=O)c(N2CCCCC2)nc1=S | inactive: -27.5%
COc1ccc(CCN(Cc2cc3ccc(C)cc3n3nnnc23)C(C)=O)cc1OC | active: -100%
COc1ccccc1N(C)S(=O)(=O)c1ccc(C(=O)Nc2ccncc2)cc1 | inconclusive: -46%
O=C(N/N=C\c1c[nH]c2ccccc12)c1ccc(O)cc1 | inactive: 89.5%
CCC1CCCCN1C(=O)CSc1nc(-c2ccc(OC)cc2)cc(C(F)(F)F)n1 (stereo not given) | inconclusive: -46.1%
Oc1ccccc1CN1CCCC(N2CCc3ccccc3C2)C1 (stereo not given) | inactive: 73.3%
Cc1cccc(NC(=O)CSc2nc3ccccc3nc2N2CC(C)OC(C)C2)c1 (stereo not given) | inactive: -11.2%
O=Cc1c(N2CCCCC2)nc2ccccn2c1=O | inconclusive: -51.5%
COCCNC(=S)N/N=C1\CC(C)CC(C)(C)C1 (stereo not given) | active: -76%
CCn1cnc2cc(NCc3ccc(N(C)C)cc3)ccc21 | inconclusive: -49% and inconclusive: -48.1%
C=CCn1c(SCC(=O)N2c3ccccc3Sc3ccccc32)nnc1-c1ccco1 | inconclusive: -52.3%
COc1ccc(OC)c(/C=N/NC(=S)NCCc2ccccc2)c1 | inconclusive: -55.9%
O=C(O)c1cccc(CSc2nc(-c3ccc(Cl)cc3)cc(C(F)(F)F)n2)c1 | inactive: -25.2%
COc1cccc(CNC(=O)C2CCCN(c3nnc(-n4c(C)ccc4C)s3)C2)c1 (stereo not given) | inconclusive: -56.3%

From PubChem BioAssay AID1259415 (National Center for Advancing Translational Sciences (NCATS), 2018)
